According to PubChem BioAssay AID1347076 (National Center for Advancing Translational Sciences (NCATS), 2019):
In all, about 400,000 compounds went through this assay and about 13,000 (3.2%) were called active. The shares of active, inactive and inconclusive entries below differ from those in the screen. The call rests on the fitted dose curve; in most records, active means well fitted cell-killing curve with a large enough effect; inconclusive means small, poorly fitted or top-dose-only effect, or effect the other way; inactive means flat fitted curve, though single readings scatter. A potency beside an inconclusive call is a rough fit, not a confirmed value.

test: qHTS assay for MDR1-selective chemotherapeutics: Primary screen using the drug-selected MDR subline cells KB-V1; conditions: KB-V1 MDR cells viability, CellTiter-Glo, 72 h; activity change, negative = cytotoxicity: at 46.1 µM (top of the series); further: nearly all actives have a fitted effect of over 60% in size
Summary of the method: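 Cytotoxicity via CellTiter-Glo luminescence after 72 h compound exposure at 37 degrees C. Cells: drug-selected KB-V1 line, DMEM phenol-red free plus 10% FBS. Compounds tested at multiple concentrations; normalized data fitted to concentration-effect curves.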
On the % scale 0 is the no-effect control and ±100 the full control effect; potency means the concentration at half of the fitted maximal effect.

For O=C(O)c1ccc(N(Cc2ccccc2)S(=O)(=O)c2ccccc2)cc1, which Potency is on record?
The Potency was “inactive”.

Which Potency does the source give for CC1CC(C)C(=O)C(C(CC2CC(=O)NC(=O)C2)OC(=O)CC(=O)c2ccccc2)C1 (stereo not given) here?
The Potency was inconclusive: 2.06 µM [cytotoxic, full curve, poor fit].

With CCc1ccccc1NC(=S)N(CCN(C)C)Cc1cccs1 as the molecule, how does the Potency read?
The Potency was inconclusive: 11.6 µM [cytotoxic, partial curve, poor fit].

For CCOc1cc(S(=O)(=O)NCCc2ccccc2C)c(OCC)cc1-n1cnnn1, which Potency is on record?
Its Potency is inconclusive: 4.11 µM [cytotoxic, single point].

For CC1CCCCC1NC(=O)CSc1nnc(CC(=O)Nc2ccccc2F)n1C (stereo not given), which Potency is on record?
The Potency was inconclusive: 29.1 µM [rising, single point].

With COc1cccc(C(CNC(=O)c2ccc(Cl)c(S(=O)(=O)N3CCCC3)c2)N(C)C)c1 (stereo not given) as the molecule, how does the Potency read?
The Potency was inconclusive: 20.6 µM [cytotoxic, single point].

With CCOc1ccccc1CNC(=O)c1ccc2nc(CCc3ccccc3)oc2c1 as the molecule, how does the Potency read?
The Potency was inconclusive: 16.4 µM [cytotoxic, single point].

With COC(=O)[C@H](c1ccccc1Cl)N1CCc2sccc2C1 as the molecule, how does the Potency read?
The Potency was “inactive”.

For Cc1cc(C(=O)N/N=C/c2cc(Br)cc(Br)c2OC(=O)c2cccc(F)c2)n[nH]1, which Potency is on record?
The Potency was inconclusive: 4.11 µM [cytotoxic, partial curve, poor fit].

With COc1ccc2nc(Sc3c([N+](=O)[O-])nc(C)n3Cc3ccccc3)[nH]c2c1 as the molecule, how does the Potency read?
Its Potency is “inactive”.

For CCOc1cc(C(=O)N2CCN(C/C=C/c3ccccc3)CC2)cc(OCC)c1OCC, which Potency is on record?
Its Potency is inconclusive: 14.6 µM [cytotoxic, partial curve, poor fit].

Which Potency does the source give for CC(=O)N/N=C/c1cc(C(C)C)cc(/C=N/NC(C)=O)c1O here?
The Potency was inconclusive: 20.6 µM [cytotoxic, single point].

Which Potency does the source give for COC(CN(C(=O)CCl)C(C(=O)NC1CCCCC1)c1ccc(Cl)cc1)OC (stereo not given) here?
The Potency was inconclusive: 20.6 µM [cytotoxic, single point].

For Cc1cc(OCc2cn3cccnc3n2)ccc1Cl, which Potency is on record?
The Potency was “inactive”.

With CN(C)c1c(Br)cc(C=O)cc1Br as the molecule, how does the Potency read?
The Potency was inconclusive: 29.1 µM [rising, single point].

With CCC(=O)Nc1ccc(OCc2nc3ccccc3s2)cc1 as the molecule, how does the Potency read?
The Potency was inconclusive: 14.6 µM [cytotoxic, single point].

With CCC/C(=N/NC(=O)c1cccc(Cl)c1)c1ccccc1 as the molecule, how does the Potency read?
Its Potency is inconclusive: 20.6 µM [cytotoxic, single point].

For O=C(Nc1ccc2nsnc2c1)NC1CCCCC1, which Potency is on record?
Its Potency is inconclusive: 18.4 µM [cytotoxic, partial curve, poor fit].

With CC(CCc1ccccc1)NC(=O)c1ccc(Br)cc1 (stereo not given) as the molecule, how does the Potency read?
The Potency was inconclusive: 23.1 µM [cytotoxic, single point].

For Clc1ccc2[nH]c(-c3ccccc3)cc2c1, which Potency is on record?
The Potency was inconclusive: 25.9 µM [cytotoxic, single point].

With N#CN(CC(N)=O)c1nc(N2CCCCC2)nc(N2CCCCC2)n1 as the molecule, how does the Potency read?
Its Potency is inconclusive: 29.1 µM [rising, single point].

With COc1ccc2ccc3c(c2c1)N=C[C@]1(O3)N(C)c2ccccc2C1(C)C as the molecule, how does the Potency read?
The Potency was inconclusive: 23.1 µM [cytotoxic, single point].

For COc1ccccc1C(=O)NCC(=O)N1CCN(c2ncccn2)CC1, which Potency is on record?
The Potency was inconclusive: 29.1 µM [rising, single point].

For Cc1ccc2c(c1)C(c1ccccc1)N(C(=O)c1cccc([N+](=O)[O-])c1)CC(=O)N2 (stereo not given), which Potency is on record?
Its Potency is “inactive”.

With Cc1ccc(-c2csc(NC(=O)C3=NN(c4ccccc4)C(=O)CC3)n2)cc1 as the molecule, how does the Potency read?
Its Potency is inconclusive: 9.2 µM [cytotoxic, partial curve].

For O=C(CSc1nc2ccccc2s1)N1c2ccccc2Sc2ccc(C(F)(F)F)cc21, which Potency is on record?
The Potency was inconclusive: 29.1 µM [cytotoxic, single point].

For OC(c1ccccc1)(c1nc(-c2csc3ccccc23)cs1)C(F)(F)F (stereo not given), which Potency is on record?
Its Potency is inconclusive: 10.3 µM [rising, partial curve, poor fit].

With Cc1nc(SCC(=O)Nc2ccc(Cl)cc2C(F)(F)F)[nH]c(=O)c1Cc1ccccc1 as the molecule, how does the Potency read?
The Potency was “inactive”.

Which Potency does the source give for Cc1c(Cc2ccc3c(c2)OCO3)sc(NC(=O)C(C)(C)C)c1C#N here?
The Potency was inconclusive: 10.3 µM [cytotoxic, partial curve, poor fit].

With Cn1cc(CNC(=O)C2CCC(=O)N(Cc3ccc(Cl)cc3)C2)cn1 (stereo not given) as the molecule, how does the Potency read?
The Potency was inconclusive: 29.1 µM [rising, single point].

With COc1ccccc1CCNC(=O)C(=O)NCC1OCCCN1S(=O)(=O)c1cc(C)ccc1C (stereo not given) as the molecule, how does the Potency read?
Its Potency is inconclusive: 1.84 µM [cytotoxic, full curve, poor fit].

For CCCCC(=O)N1CCCC(C(=O)OCC)C1 (stereo not given), which Potency is on record?
Its Potency is “inactive”.

For O=C(NC1CCCC1)C(c1cccnc1)N(C(=O)c1ccco1)c1ccc(F)cc1 (stereo not given), which Potency is on record?
The Potency was “inactive”.

For CCOc1cccc2cc(-c3nc(-c4ccc(Cl)cc4)c(C)s3)c(=O)oc12, which Potency is on record?
The Potency was inconclusive: 23.1 µM [rising, single point].

With CCCNC(=O)OCc1cccnc1Sc1ccc(C)cc1 as the molecule, how does the Potency read?
The Potency was inconclusive: 4.11 µM [cytotoxic, partial curve, poor fit].

For CC(C)Cc1nnc(NC(=O)Cc2ccccc2[N+](=O)[O-])s1, which Potency is on record?
The Potency was inconclusive: 0.92 µM [cytotoxic, full curve].

With Cc1ccc(NS(=O)(=O)c2ccc(C(=O)NCC3CCCO3)cc2)cc1 (stereo not given) as the molecule, how does the Potency read?
Its Potency is inconclusive: 29.1 µM [cytotoxic, single point].

Which Potency does the source give for O=C(Nc1ccccc1)Nc1nnc(CSCc2ccccc2Cl)s1 here?
Its Potency is inconclusive: 20.6 µM [cytotoxic, single point].

With CCOc1ccc(C2=Nn3c(nnc3-c3cccnc3)SC2)cc1 as the molecule, how does the Potency read?
Its Potency is inconclusive: 8.2 µM [cytotoxic, partial curve].

For O=C(NNc1cc(N2CCOCC2)nc(N2CCOCC2)n1)c1ccc(Cl)c(Cl)c1, which Potency is on record?
The Potency was active: 11.6 µM.

For O=C(COc1ncnc2c1cnn2-c1ccccc1)Nc1ccc(S(=O)(=O)N2CCCCC2)cc1, which Potency is on record?
Its Potency is active: 20.6 µM.

For O=C(Nc1cccc2c1CCCC2)C1CCN(C(=O)NC2CCCCC2)CC1, which Potency is on record?
The Potency was active: 13 µM.

With CN1CCN(C(=S)c2cn(Cc3cccc(F)c3)c3ccccc23)CC1 as the molecule, how does the Potency read?
The Potency was inconclusive: 18.4 µM [cytotoxic, partial curve, poor fit].

For O=C(c1cc(-c2ccccc2O)on1)N1CCOCC1, which Potency is on record?
Its Potency is inconclusive: 0.58 µM [rising, full curve, poor fit].

With CCN(CC)CCNC(=O)c1ccc2c(=O)n3nc(Nc4cccc(Cl)c4C)sc3nc2c1 as the molecule, how does the activity change, negative = cytotoxicity read?
Its activity change, negative = cytotoxicity is inconclusive: 17.5%.

Which Potency does the source give for CCCn1c(=S)[nH]c2cc(C(=O)N3CCN(c4ccccc4)CC3)ccc2c1=O here?
Its Potency is “inactive”.

For CC1=C(C(=O)Nc2cc(C(=O)NCc3ccccc3)ccc2C)SCCO1, which Potency is on record?
The Potency was active: 20.6 µM.

With COc1cccc(CNC(=O)c2ccc(NC(=O)C3CCCO3)cc2)c1 (stereo not given) as the molecule, how does the Potency read?
The Potency was inconclusive: 18.4 µM [cytotoxic, partial curve].

With Cc1ccc(-c2noc(CCC(=O)NCC3CCCO3)n2)cc1 (stereo not given) as the molecule, how does the Potency read?
The Potency was active: 20.6 µM.

With CCOC(=O)C(NC(=O)c1ccccc1OCC)(Nc1ncccn1)C(F)(F)F (stereo not given) as the molecule, how does the Potency read?
Its Potency is inconclusive: 10.3 µM [cytotoxic, partial curve].

Which activity change, negative = cytotoxicity does the source give for COc1ccc(S(=O)(=O)Nc2ccccc2C(=O)N2CCCCC2)cc1C here?
The activity change, negative = cytotoxicity was inconclusive: -33%.

Which Potency does the source give for Cc1ccc(CN2CCN(/N=C/c3ccc(C(F)(F)F)cc3)CC2)cc1 here?
The Potency was inconclusive: 29.1 µM [cytotoxic, partial curve, poor fit].

With COc1ccc(Oc2nccc(-c3ccccc3)c2C#N)cc1 as the molecule, how does the Potency read?
The Potency was inconclusive: 18.4 µM [cytotoxic, single point].

Which Potency does the source give for O=C(Nc1ccc2oc(-c3ccccc3)nc2c1)c1ccncc1 here?
The Potency was active: 8.2 µM.

Which Potency does the source give for COc1ccc(CNC(=S)N/N=C/c2ccncc2)cc1 here?
Its Potency is “inactive”.

Which Potency does the source give for CCOC(=O)CN1NC2(CCCCCC2)NC1=S here?
Its Potency is “inactive”.

With CSCCC(NC(=O)c1ccccc1Cl)C(=O)NCc1ccncc1 (stereo not given) as the molecule, how does the activity change, negative = cytotoxicity read?
The activity change, negative = cytotoxicity was inconclusive: 34.3%.

For NC(=S)Nc1cccc2[nH]ncc12, which Potency is on record?
The Potency was inconclusive: 9.2 µM [rising, partial curve, poor fit].

For COc1ccc(CCN(C)c2ccc(S(=O)(=O)N3CCCC3)cn2)cc1OC, which Potency is on record?
The Potency was inconclusive: 8.2 µM [cytotoxic, partial curve].

For O=C(Nc1cccc(-c2nc3cc(Cl)ccc3o2)c1)c1ccc(F)cc1, which Potency is on record?
Its Potency is “inactive”.

For O=C(NNC1=Nc2ccccc2SC1)c1cccc([N+](=O)[O-])c1, which Potency is on record?
Its Potency is inconclusive: 5.17 µM [cytotoxic, full curve].

With CC(=O)N1N=C(c2cccc(NS(C)(=O)=O)c2)CC1c1cccs1 (stereo not given) as the molecule, how does the Potency read?
Its Potency is “inactive”.

With Cc1c(Cl)cccc1NC(=O)CS(=O)(=O)c1ccccc1 as the molecule, how does the Potency read?
Its Potency is inconclusive: 20.6 µM [rising, single point].

For NC(=S)N/N=C/c1ccc(-c2cc(Cl)cc(Cl)c2)o1, which Potency is on record?
The Potency was inconclusive: 29.1 µM [cytotoxic, single point].

With Cc1ccc(OCCSc2nc3ccccc3n2CC(=O)N2CCCCC2)c(C)c1 as the molecule, how does the Potency read?
Its Potency is active: 11.6 µM.

Which Potency does the source give for Cc1cc2ccccc2nc1-c1ccccc1F here?
The Potency was “inactive”.

For Cc1onc(-c2ccccc2)c1-c1nnc(CN2CCN(S(=O)(=O)c3ccccc3)CC2)o1, which Potency is on record?
The Potency was inconclusive: 29.1 µM [cytotoxic, single point].

Which Potency does the source give for CN(C)C(=O)N1CCC(C(=O)NCc2ccc(F)cc2Cl)CC1 here?
The Potency was inconclusive: 16.4 µM [cytotoxic, single point].

For CCOC(=O)c1[nH]c2ccccc2c1NC(=S)Nc1cccc(C)c1C, which Potency is on record?
Its Potency is inconclusive: 32.6 µM [cytotoxic, single point].

For O=C(NCCCCO)c1c(-c2ccccc2)oc2c1C(OCCCCCO)CCC2 (stereo not given), which Potency is on record?
Its Potency is “inactive”.
